Test results as given in patent publication US20050256134A1, “Use of creatine analogues and creatine kinase modulators for the prevention and treatment of glucose metabolic disorders” (AVICENA GROUP, INC., priority 1995, published 2005).
The source gives many values for each of these; only a part stands here.

System: terminal cancer patients
Test: Phase I/II open label dose escalation study, glucose levels, 3 hour continuous infusion
Format: in vivo, human
Experimental: Cyclocreatine was tested in humans in a phase I/II open label dose escalation study. […] Cyclocreatine was administered at doses that ranged from 10 mg/Kg to 100 mg/Kg. The schedule of administration of cyclocreatine is described in Table 4.
Cohorts of 3 patients were administered drug at each dose level, via a 3 hour continuous infusion in one liter volume of saline. The first week patients received cyclocreatine once, the second week patients received cyclocreatine twice, the third week three times, the fourth week four times, the fifth week five times. On weeks six and seven, no drug was administered to allow the drug to wash out. On week eight, cyclocreatine was given five times. The study included a total of 23 patients (18 male, 5 female) with a median age of 71 years (range 54-85). The patients had different types of malignancies. Eligibility requirements included patients who have failed standard therapy or for whom no therapy was available, normal organ function, have recovered from prior therapies, probability of survival of greater than three months. Reasons for exclusion included: major surgery, life threatening concurrent illness and CNS metastasis. Blood samples were collected at baseline and 1 day before and after the last weekly drug administration on days 1, 7, 9, 14, 17, 21, 25, 28, 33, 40, 47, 49, 54, 61, and 69. Glucose levels were determined for these collected blood samples. […] Not all patients experienced a significant drop in glucose although the trend was there. FIGS. 14 and 15 illustrate graphically individual patients' glucose levels upon treatment with 60 mg/Kg or 80 mg/Kg cyclocreatine. Patient (A) at the 80 mg/Kg dose was diabetic and had many serious complications due to their disease. […] It should be noted that an insufficient number of readings was made shortly after drug administration. It is interesting to note that several patients who were diabetic or had higher glucose levels than normal did respond to cyclocreatine, onen example being illustrated in FIG. 16.

NC1=NCCN1CC(=O)O [cyclocreatine]
Glucose (Patient 2, 1, 10 mg/kg, Study Day 17): 108 mg/dL | Glucose (Patient 2, 1, 10 mg/kg, Study Day 21): 101 mg/dL | Glucose (Patient 2, 1, 10 mg/kg, Study Day 25): 100 mg/dL | Glucose (Patient 2, 1, 10 mg/kg, Study Day 28): 103 mg/dL | Glucose (Patient 2, 1, 10 mg/kg, Study Day 33): 76 mg/dL | Glucose (Patient 2, 1, 10 mg/kg, Study Day 40): 80 mg/dL | Glucose (Patient 2, 1, 10 mg/kg, Study Day 47): 86 mg/dL | Glucose (Patient 2, 1, 10 mg/kg, Study Day 49): 93 mg/dL | Glucose (Patient 2, 1, 10 mg/kg, Study Day 54): 107 mg/dL | Glucose (Patient 2, 1, 10 mg/kg, Study Day 61): 100 mg/dL | Glucose (Patient 2, 1, 10 mg/kg, Study Day 69): 90 mg/dL | Glucose (Patient 2, 2, 10 mg/kg, Study Day 0): 109 mg/dL | Glucose (Patient 2, 2, 10 mg/kg, Study Day 1): 84 mg/dL | Glucose (Patient 2, 2, 10 mg/kg, Study Day 7): 83 mg/dL | Glucose (Patient 2, 2, 10 mg/kg, Study Day 9): 118 mg/dL | Glucose (Patient 2, 2, 10 mg/kg, Study Day 14): 126 mg/dL | Glucose (Patient 2, 2, 10 mg/kg, Study Day 21): 89 mg/dL | Glucose (Patient 2, 2, 10 mg/kg, Study Day 25): 93 mg/dL | Glucose (Patient 2, 2, 10 mg/kg, Study Day 28): 90 mg/dL | Glucose (Patient 2, 2, 10 mg/kg, Study Day 33): 110 mg/dL | Glucose (Patient 2, 2, 10 mg/kg, Study Day 40): 109 mg/dL | Glucose (Patient 2, 2, 10 mg/kg, Study Day 49): 191 mg/dL | Glucose (Patient 2, 3, 10 mg/kg, Study Day 0): 109 mg/dL | Glucose (Patient 2, 3, 10 mg/kg, Study Day 1): 138 mg/dL | Glucose (Patient 2, 3, 10 mg/kg, Study Day 7): 144 mg/dL | Glucose (Patient 2, 3, 10 mg/kg, Study Day 9): 109 mg/dL | Glucose (Patient 2, 3, 10 mg/kg, Study Day 14): 105 mg/dL | Glucose (Patient 2, 3, 10 mg/kg, Study Day 17): 84 mg/dL | Glucose (Patient 2, 3, 10 mg/kg, Study Day 21): 225 mg/dL | Glucose (Patient 2, 3, 10 mg/kg, Study Day 28): 97 mg/dL | Glucose (Patient 2, 3, 10 mg/kg, Study Day 33): 54 mg/dL | Glucose (Patient 2, 3, 10 mg/kg, Study Day 40): 214 mg/dL | Glucose (Patient 2, 3, 10 mg/kg, Study Day 47): 128 mg/dL | Glucose (Patient 2, 3, 10 mg/kg, Study Day 49): 223 mg/dL | Glucose (Patient 2, 3, 10 mg/kg, Study Day 54): 56 mg/dL | Glucose (Patient 2, 3, 10 mg/kg, Study Day 61): 171 mg/dL | Glucose (Patient 2, 3, 10 mg/kg, Study Day 69): 335 mg/dL | Glucose (Patient 2, 4, 20 mg/Kg, Study Day 0): 151 mg/dL | Glucose (Patient 2, 4, 20 mg/Kg, Study Day 1): 232 mg/dL | Glucose (Patient 2, 4, 20 mg/Kg, Study Day 7): 80 mg/dL | Glucose (Patient 2, 4, 20 mg/Kg, Study Day 14): 181 mg/dL | Glucose (Patient 2, 4, 20 mg/Kg, Study Day 21): 180 mg/dL | Glucose (Patient 2, 5, 20 mg/Kg, Study Day 0): 77 mg/dL | Glucose (Patient 2, 5, 20 mg/Kg, Study Day 1): 96 mg/dL | Glucose (Patient 2, 5, 20 mg/Kg, Study Day 7): 96 mg/dL | Glucose (Patient 2, 5, 20 mg/Kg, Study Day 9): 104 mg/dL | Glucose (Patient 2, 5, 20 mg/Kg, Study Day 14): 99 mg/dL | Glucose (Patient 2, 5, 20 mg/Kg, Study Day 17): 66 mg/dL | Glucose (Patient 2, 5, 20 mg/Kg, Study Day 21): 84 mg/dL | Glucose (Patient 2, 5, 20 mg/Kg, Study Day 25): 89 mg/dL | Glucose (Patient 2, 5, 20 mg/Kg, Study Day 28): 67 mg/dL | Glucose (Patient 2, 5, 20 mg/Kg, Study Day 33): 77 mg/dL | Glucose (Patient 2, 5, 20 mg/Kg, Study Day 40): 106 mg/dL | Glucose (Patient 2, 5, 20 mg/Kg, Study Day 47): 86 mg/dL | Glucose (Patient 2, 5, 20 mg/Kg, Study Day 54): 91 mg/dL | Glucose (Patient 2, 5, 20 mg/Kg, Study Day 61): 98 mg/dL | Glucose (Patient 2, 5, 20 mg/Kg, Study Day 69): 77 mg/dL | Glucose (Patient 2, 6, 20 mg/Kg, Study Day 0): 84 mg/dL | Glucose (Patient 2, 6, 20 mg/Kg, Study Day 1): 121 mg/dL | Glucose (Patient 2, 6, 20 mg/Kg, Study Day 7): 137 mg/dL | Glucose (Patient 2, 6, 20 mg/Kg, Study Day 9): 131 mg/dL | Glucose (Patient 2, 6, 20 mg/Kg, Study Day 14): 138 mg/dL | Glucose (Patient 2, 6, 20 mg/Kg, Study Day 17): 93 mg/dL | Glucose (Patient 2, 6, 20 mg/Kg, Study Day 21): 139 mg/dL | Glucose (Patient 2, 6, 20 mg/Kg, Study Day 25): 102 mg/dL | Glucose (Patient 2, 6, 20 mg/Kg, Study Day 28): 128 mg/dL | Glucose (Patient 2, 6, 20 mg/Kg, Study Day 33): 94 mg/dL | Glucose (Patient 2, 6, 20 mg/Kg, Study Day 40): 99 mg/dL | Glucose (Patient 2, 6, 20 mg/Kg, Study Day 47): 99 mg/dL | Glucose (Patient 2, 10 mg/kg, Study Day 0): 122 mg/dL | Glucose (Patient 2, 10 mg/kg, Study Day 7): 119 mg/dL | Glucose (Patient 2, 10 mg/kg, Study Day 9): 115 mg/dL | Glucose (Patient 2, 10 mg/kg, Study Day 14): 126 mg/dL | Glucose (Patient 2, 10 mg/kg, Study Day 21): 223 mg/dL | Glucose (Patient 2, 10 mg/kg, Study Day 25): 141 mg/dL | Glucose (Patient 2, 10 mg/kg, Study Day 28): 59 mg/dL | Glucose (Patient 2, 10 mg/kg, Study Day 33): 97 mg/dL | Glucose (Patient 2, 10 mg/kg, Study Day 40): 89 mg/dL | Glucose (Patient 2, 10 mg/kg, Study Day 47): 117 mg/dL | Glucose (Patient 2, 10 mg/kg, Study Day 54): 103 mg/dL | Glucose (Patient 2, 10 mg/kg, Study Day 61): 128 mg/dL | Glucose (Patient 2, 10 mg/kg, Study Day 69): 124 mg/dL | Glucose (Patient 3, 10 mg/kg, Study Day 0): 121 mg/dL | Glucose (Patient 3, 10 mg/kg, Study Day 1): 125 mg/dL | Glucose (Patient 3, 10 mg/kg, Study Day 7): 77 mg/dL | Glucose (Patient 3, 10 mg/kg, Study Day 9): 116 mg/dL | Glucose (Patient 3, 10 mg/kg, Study Day 17): 72 mg/dL | Glucose (Patient 3, 10 mg/kg, Study Day 21): 108 mg/dL | Glucose (Patient 3, 10 mg/kg, Study Day 25): 96 mg/dL | Glucose (Patient 3, 10 mg/kg, Study Day 28): 70 mg/dL | Glucose (Patient 3, 10 mg/kg, Study Day 33): 94 mg/dL | Glucose (Patient 3, 10 mg/kg, Study Day 40): 98 mg/dL | Glucose (Patient 3, 10 mg/kg, Study Day 47): 95 mg/dL | Glucose (Patient 3, 10 mg/kg, Study Day 54): 85 mg/dL | Glucose (Patient 3, 10 mg/kg, Study Day 69): 104 mg/dL | Glucose (Patient 4, 20 mg/Kg, Study Day 0): 84 mg/dL | Glucose (Patient 4, 20 mg/Kg, Study Day 1): 77 mg/dL | Glucose (Patient 4, 20 mg/Kg, Study Day 7): 85 mg/dL
